No constants are given. Whether binding was seen depends on the method and setting. Binding seen in cells or lysates may run through a third protein. Some entries that bind do so weakly or less than the wild type.
Molecular target: T1, Protein tyrosine phosphatase 1B (PTP1B) (human (endogenous in BGC823 and XN0422)) (UniProt P18031)
T1 sequence: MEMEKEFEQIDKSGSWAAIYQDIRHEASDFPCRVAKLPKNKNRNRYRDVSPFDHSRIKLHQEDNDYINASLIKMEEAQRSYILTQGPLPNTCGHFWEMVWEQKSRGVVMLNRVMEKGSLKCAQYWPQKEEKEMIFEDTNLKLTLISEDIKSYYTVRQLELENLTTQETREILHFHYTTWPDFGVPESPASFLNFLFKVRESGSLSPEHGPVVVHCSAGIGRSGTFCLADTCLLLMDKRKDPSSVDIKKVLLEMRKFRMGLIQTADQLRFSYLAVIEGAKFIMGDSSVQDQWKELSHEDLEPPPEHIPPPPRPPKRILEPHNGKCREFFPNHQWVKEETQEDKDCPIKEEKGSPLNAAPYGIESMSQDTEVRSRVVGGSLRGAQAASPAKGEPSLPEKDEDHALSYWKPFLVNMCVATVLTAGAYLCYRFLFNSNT
Test: co-IP; Pierce Co-IP kit; 10 ug antibody or matched IgG immobilised on AminoLink Plus resin, incubated with 500 uL lysate of PLXDC2-overexpressing (c-Myc tag) BGC823 and XN0422 cells overnight at 4 °C; eluate immunoblotted

The chains behind the UniProt entries cited, without tags or fusion partners. Residues count along the entry.
UniProt Q6UX71, residues 31-529: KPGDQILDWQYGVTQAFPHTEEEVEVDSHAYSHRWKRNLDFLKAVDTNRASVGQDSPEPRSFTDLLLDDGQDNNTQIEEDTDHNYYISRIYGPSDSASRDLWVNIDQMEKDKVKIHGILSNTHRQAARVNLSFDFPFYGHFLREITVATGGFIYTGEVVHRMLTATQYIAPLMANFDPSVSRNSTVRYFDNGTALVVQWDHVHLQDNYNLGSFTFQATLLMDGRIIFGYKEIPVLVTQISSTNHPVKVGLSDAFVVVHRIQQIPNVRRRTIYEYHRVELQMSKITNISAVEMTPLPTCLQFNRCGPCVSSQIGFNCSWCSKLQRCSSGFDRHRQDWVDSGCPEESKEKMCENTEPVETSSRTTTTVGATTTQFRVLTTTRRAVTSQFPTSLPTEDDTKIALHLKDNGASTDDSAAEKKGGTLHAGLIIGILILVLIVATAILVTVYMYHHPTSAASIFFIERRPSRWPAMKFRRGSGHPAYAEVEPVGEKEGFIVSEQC

- binding: binds
Substance: Plexin-domain containing 2 (PLXDC2), human full-length with c-Myc tag (from UniProt Q6UX71 31-529)

From PMC9338914
